Experimental data from PubChem BioAssay AID624297 (National Center for Advancing Translational Sciences (NCATS), 2012).
Among all 340,000 compounds or so, about 6,200 (1.8%) were called active. This list was built around the results that the source calls inconclusive (neither active nor inactive); the mix of calls is not that of the screen. The call rests on the fitted dose curve; in most records, active means well fitted activation curve with a large enough effect; inconclusive means small, poorly fitted or top-dose-only effect; inactive means no such curve, though single readings can be large or run the other way. Potencies of inconclusive entries are doubtful fits and often do not repeat.

Test: A quantitative high throughput screen for small molecules that induce DNA re-replication in SW480 colon adenocarcinoma cells. Further: nearly all actives have a fitted effect of over 55% in size. On re-replication activation: % of control where 0% means no effect.
Details: Hoechst DNA content imaging, 48 h; re-replication activation: at 46.1 µM (top of the series) unless noted
How it was run: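 Compounds, transferred as 23 nL by pin tool, were incubated with cells for 48 hr; DNA content per nucleus was then quantified by Hoechst staining and fluorescence plate imaging.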
Potency means the concentration at half of the fitted maximal effect.

| SMILES | Potency | re-replication activation |
| --- | --- | --- |
| O=Cc1ccc(N2N=C(c3ccccc3)CC2c2ccccc2)cc1 (stereo not given) | inconclusive: 20.6 µM [activator, single point] | – |
| Cc1ccc(C(=O)CN(CCCC(N)=O)C(=O)c2ccncc2)cc1 | inconclusive: 0.517 µM [activator, full curve] | – |
| Cc1ccc(C(=O)Nc2ccc(Oc3cccc(C(F)(F)F)c3)nc2)cc1 | inconclusive: 23.1 µM [activator, partial curve, poor fit] | – |
| CCc1nc(C)cc2c1sc1ccccc12 | inconclusive: 23.1 µM [activator, single point] | – |
| COc1ccc(CN2CCCC(C(=O)c3ccc(SC)cc3)C2)cc1Cn1cccn1 (stereo not given) | inconclusive: 18.4 µM [activator, single point] | – |
| CCC(=O)Nc1cccc(C2=NN(c3ccccc3)C(c3ccc(OC)cc3)C2)c1 (stereo not given) | active: 18.4 µM | – |
| C=CCN1C(=O)S/C(=C\c2ccc(N3CCOCC3)cc2C)C1=O | inconclusive: 29.1 µM [activator, single point] | – |
| CC1=N/C(=C\c2ccc([N+](=O)[O-])cc2)C(=O)N1c1ccc(Br)c(C)c1 | inconclusive: 29.1 µM [activator, single point] | – |
| O=C(Cc1csc(Nc2nc(=S)[nH]c3ccccc23)n1)N1CCN(c2cccc(Cl)c2)CC1 | inactive | – |
| CC(C)=CCSc1nnc(CCNC(=O)OC(C)(C)C)o1 | inactive | – |
| CCN=C1SC(CC(=O)NCc2ccccc2)C(=O)N1CC (stereo not given) | inactive | – |
| COCCCNC(=O)c1c(N)n(-c2ccc3c(c2)OCO3)c2nc3ccccc3nc12 | active: 6.51 µM | – |
| CCCCNC(=O)c1cc2c(=O)n3cccc(C)c3nc2s1 | inconclusive: 20.6 µM [activator, single point] | – |
| CC(C)c1cc(C(=O)Nc2cccc(C(F)(F)F)c2)no1 | inconclusive: 0.092 µM [activator, full curve, poor fit] | – |
| Cc1ccc(S[C@@H](CCN2CC[C@H](C)CCC2=O)c2ccccc2)cc1 | inactive | – |
| CC(C)(C)NC(=O)Nc1nnc(SCC(=O)NC2CCCCC2)s1 | inconclusive: 14.6 µM [activator, single point] | – |
| COc1ccc(CNC(=O)[C@H](C)NC(=O)C2CCN(C(=O)[C@H](CCSC)NC(=O)OC(C)(C)C)CC2)cc1 | inconclusive: 32.6 µM [activator, single point] | – |
| Cc1ccc(NS(=O)(=O)c2cccc(C(=O)NC3CCN(Cc4ccccc4)CC3)c2)c(C)c1 | inactive | – |
| Cc1ccc(C)c(OCCC(=O)NCCc2ccc(F)cc2)c1 | inconclusive: 29.1 µM [activator, single point] | – |
| CC(NC(=O)CN1C(=O)NC2(CCCCCCC2)C1=O)c1ccccc1 (stereo not given) | inactive | – |
| Cc1nc2c(o1)CCc1ccccc1C2N1CCN(C)CC1 (stereo not given) | inactive | – |
| Cc1cc(NC(=O)c2cc3ccccc3o2)no1 | inactive | – |
| Cc1ccc(F)cc1NC(=O)c1ccc(NS(=O)(=O)c2ccc(Br)s2)cc1 | inconclusive: 6.51 µM [activator, single point] | – |
| CCOc1ccc(N2C(=O)C(c3ccccc3)=C(c3nc4ccccc4s3)C2NC(C)=O)cc1 (stereo not given) | inactive | – |

Given with bars between the fields: 14 of the compounds above
SMILES | Potency | re-replication activation
Cc1ccc(C(=O)Nc2ccc(Oc3cccc(C(F)(F)F)c3)nc2)cc1 | inconclusive: 23.1 µM [activator, partial curve, poor fit] | –
CCc1nc(C)cc2c1sc1ccccc12 | inconclusive: 23.1 µM [activator, single point] | –
COc1ccc(CN2CCCC(C(=O)c3ccc(SC)cc3)C2)cc1Cn1cccn1 (stereo not given) | inconclusive: 18.4 µM [activator, single point] | –
CCC(=O)Nc1cccc(C2=NN(c3ccccc3)C(c3ccc(OC)cc3)C2)c1 (stereo not given) | active: 18.4 µM | –
C=CCN1C(=O)S/C(=C\c2ccc(N3CCOCC3)cc2C)C1=O | inconclusive: 29.1 µM [activator, single point] | –
CC1=N/C(=C\c2ccc([N+](=O)[O-])cc2)C(=O)N1c1ccc(Br)c(C)c1 | inconclusive: 29.1 µM [activator, single point] | –
O=C(Cc1csc(Nc2nc(=S)[nH]c3ccccc23)n1)N1CCN(c2cccc(Cl)c2)CC1 | inactive | –
CC(C)=CCSc1nnc(CCNC(=O)OC(C)(C)C)o1 | inactive | –
CCN=C1SC(CC(=O)NCc2ccccc2)C(=O)N1CC (stereo not given) | inactive | –
COCCCNC(=O)c1c(N)n(-c2ccc3c(c2)OCO3)c2nc3ccccc3nc12 | active: 6.51 µM | –
CCCCNC(=O)c1cc2c(=O)n3cccc(C)c3nc2s1 | inconclusive: 20.6 µM [activator, single point] | –
CC(C)c1cc(C(=O)Nc2cccc(C(F)(F)F)c2)no1 | inconclusive: 0.092 µM [activator, full curve, poor fit] | –
Cc1ccc(S[C@@H](CCN2CC[C@H](C)CCC2=O)c2ccccc2)cc1 | inactive | –
CC(C)(C)NC(=O)Nc1nnc(SCC(=O)NC2CCCCC2)s1 | inconclusive: 14.6 µM [activator, single point] | –

Further compounds follow.

| SMILES | Potency | re-replication activation |
| --- | --- | --- |
| COc1cc2nc(Nc3ccc(C)c(Cl)c3)nc(N)c2cc1OC | active: 20.6 µM | – |
| Cc1ccccc1OCc1n(CC(=O)OC2CC(C)CCC2C(C)C)c2ccccc2[n+]1C (stereo not given) | inconclusive: 29.1 µM [activator, single point] | – |
| O=C(N=C1SC2CS(=O)(=O)CC2N1Cc1ccc(F)cc1)C1CCCO1 (stereo not given) | inconclusive: 0.517 µM [activator, full curve, poor fit] | – |
| CNC(=S)Nc1cc(S(=O)(=O)Nc2cc(Cl)ccc2Cl)ccc1N1CCCC1 | inactive | – |
| COc1ccc(OC)c(CCNC(=O)c2ccccc2NC(=O)C2=C(C)OCCS2)c1 | inconclusive: 29.1 µM [activator, single point] | – |
| CC(C)(C)c1ccc2c(c1)N(CC(=O)N1CCCC1)C(=O)CO2 | inconclusive: 0.103 µM [activator, full curve, poor fit] | – |
| Cc1cc(NC(=O)CSc2nc(N)c(NC(=O)c3ccccc3)c(=O)[nH]2)no1 | inconclusive: 29.1 µM [activator, single point] | – |
| CCOC(=O)OCC(=O)C1(O)CCC2C3CCC4=CC(=O)CCC4(C)C3C(O)CC21C (stereo not given) | inconclusive: 29.1 µM [activator, single point] | – |
| O=C(Nc1ccc2ccccc2c1)c1ccc(Cl)cc1Cl | inactive | – |
| COc1ccc(C(=O)c2ccc(Cl)cc2)c2ccccc12 | inconclusive: 20.6 µM [activator, single point] | – |
| COc1cc(-c2nc3cc(C)ccn3c2NC2CCCCC2)ccc1-c1ccc(C(C)=O)cc1 | inconclusive: 29.1 µM [activator, partial curve, poor fit] | – |
| O=C1NC(=O)/C(=C\c2ccc(Cl)nc2)S1 | inconclusive: 23.1 µM [activator, single point] | – |
| Cc1ccc(-c2nc3c(c(=O)[nH]c(=O)n3Cc3ccccc3)n2Cc2ccccc2)o1 | inconclusive: 29.1 µM [activator, single point] | – |
| CCOC(=O)N1CCN(S(=O)(=O)c2ccc3c(c2)SC(C)C(=O)N3)CC1 (stereo not given) | inactive | – |
| c1cnc2c(c1)ncc1cscc12 | inactive | – |
| CCCCn1c(=O)cc(C)n(-c2ccccc2)c1=O | inactive | – |
| O=C(/C=C/c1ccccc1)NC(=S)NNC(=O)Cc1cccs1 | inconclusive: 20.6 µM [activator, partial curve, poor fit] | – |
| COc1cc(OC)nc(Oc2ccccc2C(=O)Oc2ccc(Cl)cc2)n1 | inconclusive: 20.6 µM [activator, single point] | – |
| Cc1ccc(C)c(S(=O)(=O)Nc2ccc3scnc3c2)c1 | inconclusive: 35.5 µM [activator, single point] | – |
| O=C(Nc1ccc(OC(F)F)cc1)c1ccccn1 | inactive | – |
| COCc1c(C(=O)N2CCN(c3ccccc3C)CC2)oc2ccccc12 | inactive | – |
| CC(=O)N1c2ccc(S(=O)(=O)NCC3CCC(C(=O)Nc4cc(C)ccn4)CC3)cc2CC1C (stereo not given) | inconclusive: 29.1 µM [activator, single point] | – |
| COC(=O)Nc1ccc(S(=O)(=O)N2CCCCC2C(=O)O)cc1 (stereo not given) | inconclusive: 29.1 µM [activator, single point] | – |
| Cc1ccc(CN2CCN(CCCn3cnc4c(OCc5ccccc5)ncnc43)CC2)cc1 | inconclusive: 32.6 µM [activator, single point] | – |

| SMILES | Potency | re-replication activation |
| --- | --- | --- |
| O=C(CCN1CCN(Cc2ccccc2)CC1)NNC(=O)Cc1ccc(Cl)c(Cl)c1 | inconclusive: 23.1 µM [activator, single point] | – |
| Clc1ccc(-c2nnc3n2CCCCC3)cc1 | – | inactive: 0.424% [at 9.22 µM] |
| O=C(CSc1nc2ccccc2c(=O)n1Cc1ccc(F)cc1)NCC1CCCO1 (stereo not given) | inactive | – |
| O=c1cc(CSc2nc(NCc3ccc(Cl)cc3)c3ccccc3n2)nc2ccc(Cl)cn12 | inactive | – |
| CCCC(=O)Nc1ccc(NC(=O)CCc2ccccc2)cn1 | inconclusive: 29.1 µM [activator, single point] | – |
| O=C(Nc1cc(S(=O)(=O)N2CCCCC2)ccc1O)c1ccccc1NS(=O)(=O)c1ccc(F)c(F)c1 | inconclusive: 0.184 µM [activator, full curve, poor fit] | – |
| CCOc1ccc(N(CC(=O)Nc2cccc(C)c2)S(C)(=O)=O)cc1 | inconclusive: 0.82 µM [activator, partial curve, poor fit] | – |
| COc1ccc2c(c1)C(C)=CC(C)(C)N2S(=O)(=O)c1ccc(NC(C)=O)cc1 | active: 1.46 µM | – |
| CC(C)[C@H](NC(=O)c1ccc(C(C)(C)C)cc1)C(=O)N1CCN(Cc2ccc3c(c2)OCO3)CC1 | inconclusive: 14.6 µM [activator, single point] | – |
| O=C(CSc1nnc(-c2ccncc2)o1)NC1C2CC3CC(C2)CC1C3 (stereo not given) | inactive | – |
| N#Cc1ccccc1S(=O)(=O)N1CCN(S(=O)(=O)c2ccc(Br)c(C(=O)O)c2)CC1 | inactive | – |
| CCOC(=O)C1CCCN(C(=O)c2cc(S(=O)(=O)N(C)C)ccc2N2CCCC2)C1 (stereo not given) | inconclusive: 29.1 µM [activator, partial curve, poor fit] | – |
| Cc1cc(C(=O)Nc2ccc3c(c2)CCC3)c2ccccc2n1 | inconclusive: 18.4 µM [activator, partial curve, poor fit] | – |
| NNC(=O)c1sc(-c2ccc(Cl)cc2)cc1N | inconclusive: 18.4 µM [activator, single point] | – |
| CCOC(=O)C1C(C(C)=O)=C(c2ccccc2)c2ccccc2N1S(=O)(=O)C(F)(F)F (stereo not given) | inactive | – |
| CC(=O)N1c2ccc(S(=O)(=O)N3CCCCC3)cc2CC1C(=O)Nc1cccc(C)c1 (stereo not given) | inactive | – |
| Cc1ccc(CN(Cc2ccccn2)C(=O)Nc2ccc(C)c(C)c2)cc1 | inconclusive: 20.6 µM [activator, single point] | – |
| CCOC(=O)/C(=N\Nc1ncnc2ccccc12)c1ccc(C)cc1 | inconclusive: 29.1 µM [activator, single point] | – |
| CC1(C(=O)O)CCC(C(=O)NNC(=O)c2ccccc2Cl)C1(C)C (stereo not given) | inactive | – |
| CCOC(=O)CN(C(=O)CSc1nnc(CNc2ccc(F)cc2)o1)c1ccccc1 | inactive | – |
| CCOC(=O)c1cnc2ccccc2c1Nc1cccc(C(=O)O)c1 | inconclusive: 2.91 µM [activator, partial curve, poor fit] | – |
| O=C(c1ccccc1)C1CN(Cc2ccccc2)CCC1(O)c1ccccc1 (stereo not given) | inconclusive: 29.1 µM [activator, single point] | – |
